## Primary screen of a compound library

The values are deposited in ChEMBL (CHEMBL3988442, “University of Dundee, Small-Polar-MMV Screening Library” (2021)).

Mtb cholesterol medium: 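Growth of Mycobacterium tuberculosis over 4 days (cholesterol / DPPC medium with tyloxapol); the read-out is not stated. Tested at 50 µM. The record gives no direction; compounds that gave an IC50 in retests scored well above the rest, so higher reads as more growth inhibition. Size under these conditions: about 69,000 compounds, about 370 of them at 50% or above in at least one test.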
Mtb glucose medium: 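Phenotypic screen: M. tuberculosis growth, glucose 7H9 medium, 3 days; the read-out is not stated. Compounds at 50 µM. Higher reads as more growth inhibition (inferred: compounds with an IC50 in retests scored well above the rest). Of about 69,000 compounds tested this way, about 760 (1.1%) reached 50% or more in at least one test.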

Results are given as percent effect.
How 0% and 100% were set is not recorded. Most values in the screen are low, and negative values occur.
This is an unselected part of the compounds tested.
Two or more numbers in one place are separate tests of the same structure; such repeats can differ widely.

compound | Mtb cholesterol medium | Mtb glucose medium
O=C(C1CC12CCC2)N1CCC(n2cc(-c3ccsc3)nn2)CC1 (centres unmarked) | 35.7% | 18.35%
O=C(CSC1CCCC1)N1CCN(C(=O)C2CC2c2ccccc2)CC1 (centres unmarked) | 5.287% | 16.38% and 29.65%
Cc1noc(C)c1-c1ccc(C2CCCN2CCC(N)=O)nc1 (centres unmarked) | 15.7% | 15.19%
O=C(O)C(F)(F)F.O=C(O)C(F)(F)F.[H][C@@]12COC[C@]1([H])[C@H](OCc1ccccn1)CN2Cc1ccc(OC)cc1 | 8.176% | -9.753%
CCc1cnc2c(c1NCc1ccc(OC)cc1)c(=O)n(C)c(=O)n2C | -17.23% | -8.442%
Cc1ccc(CN2CCC3(CC(=O)N(c4ccc5c(c4)OCO5)C3)C2)o1 (centres unmarked) | 0.09511% | 24.65%
CCOCC(O)CN1CCN(C(=O)Cc2ccc(C)nc2)CC1 (centres unmarked) | -20.81% | -29.34%
Fc1ccc(OCc2nnc([C@H]3CCN(Cc4ccncc4)C3)o2)cc1 | -14.69% | 5.996% and 3.95%
CS(=O)(=O)NCc1cn2c(n1)CN(C(=O)c1ccc[nH]1)CC2 | -12.38% | 0.8605%
O=C(O)C(F)(F)F.O=C(c1cccnc1)N1CCc2ncnc(C3CCOC3)c2CC1 (centres unmarked) | -21.41% | -18.77%
CCn1c(N)nc2cc(C(=O)NCCc3ccccc3C)cnc21 | -12.31% | 14.9% and 0.5888%
CN1CCC(N(Cc2ccco2)S(=O)(=O)c2ccc(Br)cc2Cl)CC1 | 7.733% | 19.9%
Cc1cccc2c1nc1n2[C@@H](CNC(=O)NC(C)C)COC1 | -30.09% | -40.76% and -3.819%
Cc1cc(C)nc(NCc2cc3n(n2)CCCN(C(=O)C2CCC2)C3)n1 | 16.21% | 22.75%
CC1c2ncc(Cn3cccn3)n2CCN1S(C)(=O)=O.O=C(O)C(F)(F)F (centres unmarked) | -24.91% | -17.1%
COCc1ncc(CN2CCC3(CCNCC3)CC2)cn1 | -3.174% | 30.62%
Cn1nc(C(=O)NCc2cccc(Cn3ccnc3)c2)ccc1=O | 11% | 7.698%
CC(NC(=O)CN1CCCC1=O)c1ccc(Cl)s1 (centres unmarked) | 2.969% | -3.007%
O=C(c1cccnc1)N1CCOC(c2ccc(-c3cncnc3)cn2)C1 (centres unmarked) | -18.77% | -22.1%
O=C(c1cscn1)N1CCn2cnc(COCC3CC3)c2C1 | -12.05% and -5.869% | -17.94% and -5.349%
Cc1cnn(CC2CCCN2C(=O)c2cc3ccccc3[nH]2)c1 (centres unmarked) | -6.898% | 28.33%
COCC(=O)NCc1cccc(OCCN(C)C2CCOCC2)c1 | 16.67% | 26.81% and -3.79%
O=C(O)C(F)(F)F.[H][C@@]12CN(C(=O)COC)CCC[C@]1(C(=O)N(C)C)CN(c1ccccn1)C2 | 2.002% | 6.999%
CCc1ccc2c(c1)C(CCNC(=O)Cc1ccc(F)cc1)C(=O)N2 (centres unmarked) | -18.21% | -32.5%
CN(Cc1cnn(C)c1)C(=O)NCc1cc(Br)cs1 | 0.468% | 6.944%
O=C(O)C(F)(F)F.[H][C@@]12C[C@H](C(=O)NCCN(C)C)[C@@]([H])(CN(C(=O)NC3CCCC3)C1)O2 | -4.411% | -45.43% and -11.74%
COc1ccccc1OCC(=O)NS(=O)(=O)c1cc(F)ccc1F | 16.42% | -1.049%
[H][C@@]12COC[C@]1(COc1ccc(C#N)cn1)CN(Cc1ccccn1)C2 | -5.381% | -5.752%
CN(Cc1ccc(F)c(F)c1)Cc1cc2c(cc1Br)OCCO2 | 18.91% | 30.67%
CCC(NCCn1cccn1)C(=O)Nc1cc(C)on1 (centres unmarked) | -54.6% | -8.984% and 1.928%
CCOc1cc(C)nc(N2CCN(C(=O)c3cn[nH]c3CC)CC2)n1 | 5.763% | 19.89%
Cn1cc2c(n1)C(CNCc1ccco1)OCC2.O=C(O)C(F)(F)F.O=C(O)C(F)(F)F (centres unmarked) | -22.6% | -18.8%
CN(C)CC1CN(c2ncnc3ccsc23)CCO1 (centres unmarked) | 7.873% | 23.81%
CCOc1cc(-c2cc(=O)n3c(n2)CCCCC3)ccc1O | -1.859% | -4.201%
CCc1[nH]ncc1C(=O)N1CCCN(Cc2nccn2C(C)C)CC1 | 0.8758% | -9.563%
COCCCN(Cc1cc(O)nc2ccccc12)C(=O)NC(C)C | -30.34% | -7.979%
COc1ccccc1C(C#N)NC(=O)c1cccc2c1oc(=O)n2C (centres unmarked) | -17.45% | -4.549%
CCc1ccc(C(=O)NC2CCN(c3ccn(C)n3)C2)o1 (centres unmarked) | -1.38% | 8.947% and 1.969%
O=C(c1ccc2[nH]nnc2c1)N1C[C@H](O)[C@]2(CCCO2)C1 | -5.08% | -4.276%
CC(C)NC(=O)N1CCN(CC2CC2)CC2(CNC(=O)C2)C1.O=C(O)C(F)(F)F (centres unmarked) | -14.63% | 7.234%
CC(C)N1CCC2(CCNCC2)C1=O.Cl | 7.082% | -8.275%
[H][C@]12CC[C@]([H])(CN(S(=O)(=O)CCC)C1)N(Cc1cscn1)C2=O | -13.67% | -13.78%

4 of the entries, repeated:

With O=C(CSC1CCCC1)N1CCN(C(=O)C2CC2c2ccccc2)CC1 (centres unmarked) the screen gave Mtb cholesterol medium: 5.287%; Mtb glucose medium: 16.38% and 29.65%.
With CCc1ccc2c(c1)C(CCNC(=O)Cc1ccc(F)cc1)C(=O)N2 (centres unmarked) the screen gave Mtb cholesterol medium: -18.21%; Mtb glucose medium: -32.5%.
With COCC(=O)NCc1cccc(OCCN(C)C2CCOCC2)c1 the screen gave Mtb cholesterol medium: 16.67%; Mtb glucose medium: 26.81% and -3.79%.
With CN(C)CC1CN(c2ncnc3ccsc23)CCO1 (centres unmarked) the screen gave Mtb cholesterol medium: 7.873%; Mtb glucose medium: 23.81%.